Laboratory results: PubChem BioAssay AID2685 (National Center for Advancing Translational Sciences (NCATS), 2010)
The list shows a part of the results. The main result of the screen is listed elsewhere. These columns were measured beside it and carry no call. Compounds called inactive in the main read-out are mostly missing here. Potencies come from curve fits of mixed quality, noted in brackets.

Assay: qHTS Assay for Lipid Storage Modulators in Drosophila S3 Cells;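 on cell number change: cells counted by Cell Tracker Red CMTPX staining in the red channel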
Conditions: BODIPY lipid droplet fluorescence, 18-24 h; for cell number change: measured here: cell count max response, cells fed with added oleic acid
How it was run: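 Drosophila S3 cells got compounds at several concentrations plus oleic acid (400 uM solution). Laser-scanning cytometry with 488 nm excitation read lipid droplets at 500-530 nm and cells at 575-640 nm. Percent activity was relative to 20 uM Triacsin C.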

[1] = measured here: cell number channel AC50, cells fed with added oleic acid
[2] = measured here: lipid fluorescence (Fed channel) AC50, cells fed with added oleic acid

| SMILES | cell number change | AC50 [1] | AC50 [2] |
| --- | --- | --- | --- |
| Cn1c(N)c(C(=O)COC(=O)CSc2ccc(Cl)cc2)c(=O)n(C)c1=O | 33.3% | 1.64 µM [falling, partial curve, poor fit] |  |
| CC(=O)NS(=O)(=O)c1ccc(N)cc1 | -18% | 3.26 µM [falling, partial curve, poor fit] | 0.731 µM [rising, full curve] |
| COc1ccc(Cl)cc1C(=O)NNC(=S)NC(=O)/C=C/c1ccco1 |  | 0.58 µM [rising, single point] | 0.58 µM [rising, single point] |
| Cc1nc(NCc2ccccc2)[nH]c(=O)c1CCC(C)C |  | 6.51 µM [falling, single point] | 3.66 µM [falling, partial curve] |
| Cc1ccc(CN2C(=O)C(Cc3ccccc3)Nc3ncnc(N4CCN(c5ccccc5)CC4)c32)cc1 (stereo unspecified) | 4.88% | 6.51 µM [falling, single point] | 3.26 µM [falling, single point] |
| O=C1CC(c2ccc(S(=O)(=O)NCc3ccccc3)cc2)CN1 (stereo unspecified) | 8.09% |  |  |
| Cc1c(C(=O)Nc2ccc(-c3nnc4n3CCCCC4)cc2)oc2c1ccc1ccccc12 | -39% | 16.4 µM [falling, single point] | 18.4 µM [falling, single point] |
| C=CCNC(=O)c1oc2ccc(S(=O)(=O)N3CCCCC3)cc2c1C |  |  | 29.1 µM [falling, single point] |
| COC(=O)C1CCN(c2ccc(Cl)nn2)CC1 | -66.8% | 0.184 µM [falling, full curve] |  |
| Cc1ccc(OCC(=O)Nc2ccc(C)c(S(=O)(=O)N3CCCCCC3)c2)c([N+](=O)[O-])n1 | 20.2% |  | 7.31 µM [rising, full curve, poor fit] |
| CCOc1ncccc1C(=O)OCc1ccccc1 |  |  | 6.51 µM [falling, single point] |
| O=C1CC(c2ccccc2)n2nc(N3C(=O)CCC3=O)nc2N1 (stereo unspecified) | -0.947% |  | 0.58 µM [falling, full curve] |
| COc1cccc(C(=O)Nc2ccc3c(c2)C(=O)N(CC2CCCO2)C3=O)c1 (stereo unspecified) | -28.3% |  |  |
| CCOc1ccccc1C(=O)NCC(=O)O | 11.1% |  | 2.31 µM [falling, full curve, poor fit] |
| CCOC(=O)c1c(NC(=O)COC(=O)CCNS(=O)(=O)c2ccccc2)sc(C(=O)N(C)C)c1C | 50% | 29.1 µM [rising, single point] |  |
| O=C(Nc1nnc(-c2ccccc2)s1)c1ccccc1F | 20.5% |  |  |
| Clc1ccc(-c2ccc(CNCc3ccccn3)o2)cc1 | 0.0499% |  | 29.1 µM [rising, single point] |
| COC(=O)c1ccc(C2C(C(C)=O)=C(O)C(=O)N2CCO)cc1 (stereo unspecified) | -22.1% |  | 29.1 µM [falling, single point] |
| COc1ccc(OC)c(/C=C/C(=O)c2ccc(Cl)cc2)c1 | -8.93% |  |  |
| CC(=O)Oc1ccc(CCC(C)OC(C)=O)cc1 (stereo unspecified) | -35.2% | 1.03 µM [falling, full curve] | 1.16 µM [falling, full curve] |

| SMILES | cell number change | AC50 [1] | AC50 [2] |
| --- | --- | --- | --- |
| COc1ccc(N2CC(C(=O)N[C@@H](CC(C)C)C(=O)NC3CCCC3)CC2=O)cc1 (stereo partly specified) | -2.83% |  | 29.1 µM [rising, partial curve] |
| COC(=O)c1ccc(S(=O)(=O)N2CCCCCC2)cc1 | -6.13% | 0.00517 µM [falling, full curve, poor fit] | 0.0058 µM [falling, full curve, poor fit] |
| CCC(=O)Nc1cccc(C(=O)/C=C/c2ccc(F)cc2)c1 | -50.4% | 22.4 µM [falling, single point] | 12.6 µM [falling, partial curve] |
| Cc1cccc(OC(C)C(=O)Nc2cc(Cl)ccc2-n2cncn2)c1 (stereo unspecified) | -6.49% | 1.84 µM [falling, single point] | 1.84 µM [falling, single point] |
| COc1ccc(S(=O)(=O)c2c(O)cc(C)c(NS(=O)(=O)c3ccccc3)c2C)cc1 | -23.8% |  | 29.1 µM [falling, single point] |
| CC(C(=O)NCc1ccccc1)N1C(=O)c2ccccc2C1=O (stereo unspecified) | -5.28% |  |  |
| COc1ccccc1-c1nnc2sc(-c3cnccn3)nn12 | 15.5% |  | 4.61 µM [rising, partial curve] |
| O=C(Oc1ccccc1C(=O)Nc1ccccc1)c1ccccc1Br | -41.3% | 25.9 µM [falling, partial curve] | 18.4 µM [falling, partial curve] |
| COC(=O)[C@H](Cc1ccccc1)NC(=O)NCC1CCCO1 (stereo partly specified) | -39.1% | 1.16 µM [falling, full curve] | 0.92 µM [falling, full curve, poor fit] |
| Cc1noc(C)c1CSc1nc2sc(C)c(C)c2c(=O)n1C1CCCC1 | 9.34% |  | 8.2 µM [rising, partial curve] |
| Cc1ccc(S(=O)(=O)N2CCN(CC(=O)N/N=C/C=C/c3ccccc3)CC2)cc1 | 52.6% | 6.51 µM [rising, full curve, poor fit] | 23.1 µM [rising, single point] |
| Cc1c(NS(=O)(=O)c2ccc3c(c2)c(=O)n(C)c(=O)n3C)c(=O)n(-c2ccccc2)n1C | 19.8% | 0.103 µM [rising, full curve, poor fit] |  |
| CCC(C)N1C(=O)C2C(C(=O)Nc3cccc(OC)c3)C3C=CC2(O3)C1C(=O)NC1CCCCC1C (stereo unspecified) | -12.3% |  |  |
| CN(NC(=O)c1ccco1)c1nc2ccccc2nc1C(F)(F)F | 115% | 18.4 µM [rising, single point] |  |
| CC(C)(C)NC(=O)COC(=O)CCC(=O)c1ccc(Cl)cc1 | -24.2% | 3.66 µM [falling, single point] | 2.91 µM [falling, partial curve, poor fit] |
| CCOC(=O)c1cc(C(O)(C(F)(F)F)C(F)(F)F)c(/N=C/N(C)C)o1 | 23.1% |  | 2.06 µM [rising, single point] |
| CCN(CC)C(=O)C(=O)c1cccn1-c1c(Cl)cccc1C#N | 25.9% |  | 13 µM [rising, partial curve] |
| C=CCON1C(=O)c2ccccc2C1=O | -9.68% |  |  |
| CN1CCN(C(=O)CCc2nc(-c3ccc(Cl)cc3)no2)CC1 | 19.1% |  |  |
| CC(=O)C1=C(C)NC(SCC(=O)c2ccc(C)cc2)=C(C#N)C1c1ccco1 (stereo unspecified) |  | 2.91 µM [rising, partial curve] | 2.31 µM [rising, partial curve] |

| SMILES | cell number change | AC50 [1] | AC50 [2] |
| --- | --- | --- | --- |
| O=C(CN1CCN(Cc2ccccc2)C1=O)NCc1ccc(Cl)cc1 | -32.4% | 14.6 µM [falling, partial curve] |  |
| O=C(c1ccc(NS(=O)(=O)c2cccc([N+](=O)[O-])c2)cc1)N1CCN(C(=O)c2ccco2)CC1 |  |  | 8.2 µM [falling, partial curve] |
| Cc1ccc(OCC(=O)Nc2ccc(NC(=O)c3ccccc3)cc2)cc1C | 59.7% |  | 6.51 µM [falling, single point] |
| COC(=O)c1cc(C(=O)OCC(=O)c2ccc3c(c2)NC(=O)CO3)cc([N+](=O)[O-])c1 | -1.81% |  |  |
| CCC(NC(=O)c1ccccc1NC(=O)c1ccco1)C(=O)NNC(=O)c1ccc(OC)cc1 (stereo unspecified) | -15.5% | 0.461 µM [falling, full curve, poor fit] |  |
| COc1ccc(C2CC(c3ccccc3)=NN2C(=O)COC(=O)C2CC2)cc1 (stereo unspecified) | 14.8% |  | 32.6 µM [falling, single point] |
| CCCCCCCCCCOC(=O)NC1CCS(=O)(=O)C1 (stereo unspecified) | -11.4% | 5.8 µM [falling, single point] | 4.11 µM [falling, partial curve] |
| CCN(CC)CCn1c(=S)[nH]c2cc(C(=O)NCc3ccc(C)cc3)ccc2c1=O |  | 1.84 µM [rising, partial curve] | 29.1 µM [rising, single point] |
| CCCC(=O)Nc1cc(OC)c(NC(=O)NC2CCCCC2)cc1OC | -9.73% |  |  |
| COc1ccc(CCNC(=O)c2ccc(OCC(=O)N3CCOCC3)c(OC)c2)cc1OC | -33.2% | 5.62 µM [falling, full curve] |  |
| S=c1[nH]c2ccccc2n1Cc1ccccc1 | 5.74% |  |  |
| COc1ccc(Oc2ccc(N/C=C3\CCCC3=O)cc2)cc1 | 5.49% |  | 29.1 µM [rising, single point] |
| Cc1noc(C)c1C(=O)NCCc1ccc(Cl)cc1 |  |  | 0.291 µM [falling, partial curve, poor fit] |
| OC(CCN1CCC2(CC1)OCCO2)C(F)(F)F (stereo unspecified) | -20.9% | 0.0291 µM [falling, full curve, poor fit] | 0.00517 µM [falling, full curve, poor fit] |
| Cc1c(C(=O)OCC(=O)NCCc2ccc(S(N)(=O)=O)cc2)oc2ccccc12 | -28.5% |  | 0.231 µM [falling, full curve] |
| O=C(Nc1cc(Cl)ccc1O)C1CC(c2ccccc2O)=NO1 (stereo unspecified) | -27.7% |  | 0.146 µM [rising, full curve, poor fit] |
| CC(C)c1ccc2c(c1)CCC1C(C)(CN)CCCC21C (stereo unspecified) | -31.3% | 23.1 µM [falling, single point] | 29.1 µM [falling, single point] |
| COc1ccccc1-c1cc(C(=O)NCc2cccs2)no1 | 38% | 2.31 µM [rising, partial curve, poor fit] | 23.1 µM [falling, partial curve, poor fit] |

Just AC50 [1] and AC50 [2], for two of the compounds above:
SMILES | AC50 [1] | AC50 [2]
CCC(NC(=O)c1ccccc1NC(=O)c1ccco1)C(=O)NNC(=O)c1ccc(OC)cc1 (stereo unspecified) | 0.461 µM [falling, full curve, poor fit] | 
COc1ccc(C2CC(c3ccccc3)=NN2C(=O)COC(=O)C2CC2)cc1 (stereo unspecified) |  | 32.6 µM [falling, single point]

Quoted at random: two records from the list

| SMILES | cell number change | AC50 [1] | AC50 [2] |
| --- | --- | --- | --- |
| Cc1ccc(OCC(=O)Nc2ccc(NC(=O)c3ccccc3)cc2)cc1C | 59.7% |  | 6.51 µM [falling, single point] |
| COc1ccc(C2CC(c3ccccc3)=NN2C(=O)COC(=O)C2CC2)cc1 (stereo unspecified) | 14.8% |  | 32.6 µM [falling, single point] |
